Test results published in PMC7819943, “Rice protein-binding microarrays: a tool to detect cis-acting elements near promoter regions in rice”.
Some of the results follow.

Protein sequences, listed by entry. Tags and fused reporters are not part of them.
UniProt Q0JBA9, entry or part of it: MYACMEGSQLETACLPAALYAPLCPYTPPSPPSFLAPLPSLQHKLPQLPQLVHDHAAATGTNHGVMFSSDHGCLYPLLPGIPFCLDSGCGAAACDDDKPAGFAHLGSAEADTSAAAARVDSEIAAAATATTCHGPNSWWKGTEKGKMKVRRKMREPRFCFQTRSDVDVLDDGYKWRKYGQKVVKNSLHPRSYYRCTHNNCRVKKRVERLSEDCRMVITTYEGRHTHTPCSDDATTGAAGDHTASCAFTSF

Target: OsWRKY34 (Oryza sativa, UniProt Q0JBA9 1-250)
Assay: protein-binding microarray (RPBM); PBS, 2% BSA, 51.3 ng/ul salmon testes DNA, 50 uM zinc acetate, 200 nM TF, 25 C, 1 h; high values mean tight binding
Conditions: protein: recombinant; tags: N-terminal polyhistidine and DsRed monomer fusion (pET32a); label: CyDye5-dUTP incorporated in the synthesized complementary strand; 3' TTTTT single-stranded linker to array surface; dsDNA, one strand shown
Outline: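 The binding signal is fluorescence intensity per feature, in arbitrary units, read on an Axon 4000B scanner. Polyhistidine- and DsRed-tagged transcription factors (N-terminal fusions) from E. coli BL21-CodonPlus were purified on Ni–NTA and applied at 200 nM for 1 h at 25 °C to a double-stranded, BSA-blocked custom Agilent array in buffer with 50 µM zinc acetate.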

Row | Sequence | binding signal
1 | ACACCAATACATATGCCACAAATTTACAGATCTAGATTCACGGAGTCACCTAGTGCAG | 8420 fluorescence intensity (a.u.)
2 | ACTCTACAAGTCGACATTAACGTTGTGACAGTGTTTCTTTCGGAGTCACCTAGTGCAG | 8980 fluorescence intensity (a.u.)
3 | TATATCGGGACATATGAGGGTGTAGTACTTTGGTAGTGTTCGGAGTCACCTAGTGCAG | 8640 fluorescence intensity (a.u.)
4 | TGGGTTTCGATTTTAGCAAATATCCTTGTAACTATTATTACGGAGTCACCTAGTGCAG | 9170 fluorescence intensity (a.u.)
5 | AATCCTGAAGCCCGGCCCACCCAAGCTACCTAGCTCTCGACGGAGTCACCTAGTGCAG | 9000 fluorescence intensity (a.u.)
6 | ACCAATGAAGGGGTGGGCATTCGGTCTTTCGGTCATTTCGCGGAGTCACCTAGTGCAG | 12600 fluorescence intensity (a.u.)
7 | GTCCACCACCCACCTCGTACGTGTTCTGTCCACACACGCGCGGAGTCACCTAGTGCAG | 10200 fluorescence intensity (a.u.)
8 | GCAACCATAGTTTTTCGCGCTCAACTTTAATCATTCGTCTCGGAGTCACCTAGTGCAG | 8790 fluorescence intensity (a.u.)
9 | GAGAGGTGGAGATCAGGAAACAGGGGAGGGAGAGAGGTTTCGGAGTCACCTAGTGCAG | 13700 fluorescence intensity (a.u.)
10 | GGCTTTACTTGTCATGTGCTCTTGTTAATATTCTCTGTTGCGGAGTCACCTAGTGCAG | 12700 fluorescence intensity (a.u.)
11 | ACTCATTATCATTGGCCTCTCACGTTTCCATGGAAATATTCGGAGTCACCTAGTGCAG | 9140 fluorescence intensity (a.u.)
12 | CCGCGCTACCCATCGACCGATCCTACTCGCACGCGCACACCGGAGTCACCTAGTGCAG | 9510 fluorescence intensity (a.u.)
13 | TGTGTGGTCTGGCCTTTCTCTTCTCTCTCAAGACAGCGTTCGGAGTCACCTAGTGCAG | 9380 fluorescence intensity (a.u.)
14 | TCCACGACAGTTCACATTACAACTCTCTCTCTCTTGTCTGCGGAGTCACCTAGTGCAG | 9560 fluorescence intensity (a.u.)
15 | ATGTTTTTGAAAATCTTTGGTGGACTTTCTTAATGTTTTTCGGAGTCACCTAGTGCAG | 8170 fluorescence intensity (a.u.)
16 | CACCCTGACCCAATTTGTGAATTCCAATTGATTTTAGTTACGGAGTCACCTAGTGCAG | 8140 fluorescence intensity (a.u.)
17 | CCCACTCCATATACATGTGCCTCTCTTGTCCTGTATATATCGGAGTCACCTAGTGCAG | 9950 fluorescence intensity (a.u.)
18 | TAACTTTACACCATCTTTTGCCTACCTTTTACCTTTACCTCGGAGTCACCTAGTGCAG | 8320 fluorescence intensity (a.u.)
19 | GGGGCTGAACAAGGAGTTTGAGGACAGAAGAGCGGCTATGCGGAGTCACCTAGTGCAG | 8290 fluorescence intensity (a.u.)
20 | ACTACATCCGCGCACCTGCTTTGCTCGTCGACGATTATAACGGAGTCACCTAGTGCAG | 12900 fluorescence intensity (a.u.)
21 | GATTACGTTCTTGAGAAATTATTAAAACTTTGCTTTTTTTCGGAGTCACCTAGTGCAG | 9090 fluorescence intensity (a.u.)

Excerpt: nos. 10–13
Row | Sequence | binding signal
10 | GGCTTTACTTGTCATGTGCTCTTGTTAATATTCTCTGTTGCGGAGTCACCTAGTGCAG | 12700 fluorescence intensity (a.u.)
11 | ACTCATTATCATTGGCCTCTCACGTTTCCATGGAAATATTCGGAGTCACCTAGTGCAG | 9140 fluorescence intensity (a.u.)
12 | CCGCGCTACCCATCGACCGATCCTACTCGCACGCGCACACCGGAGTCACCTAGTGCAG | 9510 fluorescence intensity (a.u.)
13 | TGTGTGGTCTGGCCTTTCTCTTCTCTCTCAAGACAGCGTTCGGAGTCACCTAGTGCAG | 9380 fluorescence intensity (a.u.)

Following part:

Row | Sequence | binding signal
22 | GCCTAAGTGTTACGCACTCCGCTACTCCACTTTCTTGTGTCGGAGTCACCTAGTGCAG | 8500 fluorescence intensity (a.u.)
23 | CTGTAGTTGCCTTTGTTGGTCTTGGTTTTGCTGTTCTGGTCGGAGTCACCTAGTGCAG | 9910 fluorescence intensity (a.u.)
24 | GAGTGGATGGTTGGAATGGATGGGTTGGTGTAGATAATAACGGAGTCACCTAGTGCAG | 14000 fluorescence intensity (a.u.)
25 | GTCAGCATAGTCGCACACAAACGCGATTTCTTCTCCTCTCCGGAGTCACCTAGTGCAG | 8200 fluorescence intensity (a.u.)
26 | TTTCTTGGGCTGTATCGACTATCATTGTCTGACATTTCTACGGAGTCACCTAGTGCAG | 12300 fluorescence intensity (a.u.)
27 | TCGTCTAGATCACGTTTCTGGAGAGCTCCAGGGTCTCTTTCGGAGTCACCTAGTGCAG | 8470 fluorescence intensity (a.u.)
28 | ACAGCCAACATCTCTTGCATATGTACAACAATCAGCTGCCCGGAGTCACCTAGTGCAG | 9090 fluorescence intensity (a.u.)
29 | GTTAGGCGGTGGCGCGCGTACATACGTTCCCACTTATCATCGGAGTCACCTAGTGCAG | 10100 fluorescence intensity (a.u.)
30 | CTCTTAAATTTACGCTGTGGCTGATACTCCCTCTGTCCCGCGGAGTCACCTAGTGCAG | 8240 fluorescence intensity (a.u.)
31 | ACCATGGAAGATGCCGCTGTATTGTGTGTTCTTTTTGCTTCGGAGTCACCTAGTGCAG | 9310 fluorescence intensity (a.u.)
32 | AGGTGGTGAAGTGGAGTGGAGTGGAGAGTATCTTCTTCTTCGGAGTCACCTAGTGCAG | 10000 fluorescence intensity (a.u.)
33 | GTCGCAACCTGACCAACGTTAGTCCACACACACACTTCTTCGGAGTCACCTAGTGCAG | 10200 fluorescence intensity (a.u.)
34 | AGTGGGATCTAGTGATTGTGTGCTCGTTTGACCTCCATTTCGGAGTCACCTAGTGCAG | 12500 fluorescence intensity (a.u.)
35 | GCGTACTACCTCTCAACTTGGAGCATCTCTGCTTATTAGTCGGAGTCACCTAGTGCAG | 8820 fluorescence intensity (a.u.)
36 | ACCTTCGCTTTCTCCACACGCAACCGACCACCCCTTCTTCCGGAGTCACCTAGTGCAG | 9110 fluorescence intensity (a.u.)
37 | TGGCCTTGTTTTGGACTTTTTTCTTTTGGCATGGTGATGACGGAGTCACCTAGTGCAG | 8100 fluorescence intensity (a.u.)
38 | GCCTCCTGACCACGCGGGTTTTCTGCCCCTGCCGCTGACCCGGAGTCACCTAGTGCAG | 8120 fluorescence intensity (a.u.)
39 | TCTTTTCTCACGCTTTTTCCGTTACCCGCGAAGAGCTGAACGGAGTCACCTAGTGCAG | 8610 fluorescence intensity (a.u.)
40 | CTAATTTTCATATCCATACTTCTTCTAGGCATGCAACATACGGAGTCACCTAGTGCAG | 8300 fluorescence intensity (a.u.)
41 | TCTTCGATGGATTTGATGGTTTCATCACGCGTCTCCTCATCGGAGTCACCTAGTGCAG | 11600 fluorescence intensity (a.u.)
42 | TATGCCATCGTCCAACTTTATCGCGTCCTCCACACCAACTCGGAGTCACCTAGTGCAG | 11800 fluorescence intensity (a.u.)
